# According to patent US11845938:
# By UniProt entry, the sequences of proteins in these tests, tags left out. Residues count along the entry.
# UniProt P0DMV8, 2-641: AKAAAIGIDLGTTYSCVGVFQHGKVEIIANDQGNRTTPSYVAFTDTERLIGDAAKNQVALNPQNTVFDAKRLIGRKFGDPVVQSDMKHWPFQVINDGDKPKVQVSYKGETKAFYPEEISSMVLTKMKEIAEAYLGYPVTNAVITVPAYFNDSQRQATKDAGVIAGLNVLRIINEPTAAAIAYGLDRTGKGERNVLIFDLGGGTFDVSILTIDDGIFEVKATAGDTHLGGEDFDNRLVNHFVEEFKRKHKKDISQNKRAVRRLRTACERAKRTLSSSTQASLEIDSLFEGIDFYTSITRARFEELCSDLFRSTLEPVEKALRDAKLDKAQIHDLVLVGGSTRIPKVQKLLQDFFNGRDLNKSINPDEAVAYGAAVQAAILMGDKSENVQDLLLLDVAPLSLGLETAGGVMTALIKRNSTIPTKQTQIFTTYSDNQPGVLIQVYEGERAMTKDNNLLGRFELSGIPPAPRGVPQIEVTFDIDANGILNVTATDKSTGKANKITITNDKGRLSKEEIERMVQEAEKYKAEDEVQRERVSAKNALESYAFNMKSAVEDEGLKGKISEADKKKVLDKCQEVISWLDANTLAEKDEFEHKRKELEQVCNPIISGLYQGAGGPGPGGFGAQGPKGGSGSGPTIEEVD
# pKd: −log10 of the molar value. For at least one entry, the source does not settle the construct or the ends of the probe. Where cells or extracts were used, other partners may take part.
# Molecular target: mHSP70 (cell surface HSP70 + assayed on PANC-1 cells) (UniProt P0DMV8)
# Experiment: flow cytometry
# Details: apparent Kd on whole PANC-1 cells, 37 C, protein on the cell surface, protein details: native on PANC-1 cells (ATCC CRL-1469), label: Cy3, variant of P19
Sequence,"pKd (5FdUMP in place of 2'-F-U, 2'-F-C, target mHSP70 assigned from earlier work (WO2013/154735))","pKd (dFdCMP (gemcitabine monophosphate) in place of 2'-F-C, 2'-F-U, target mHSP70 assigned from earlier work)"
GGGAGACAAGAAUAAACGCUCAAUGGCGAAUGCCCGCCUAAUAGGGCGUUAUGACUUGUUGAGUUCGACAGGAGGCUCACAACAGGC [P19-5FdUMP],8.16,–
GGGAGACAAGAAUAAACGCUCAAUGGCGAAUGCCCGCCUAAUAGGGCGUUAUGACUUGUUGAGUUCGACAGGAGGCUCACAACAGGC [P19-dFdCMP],–,8.11
